From US5134150A, “Inhibition of the 5-lipoxygenase pathway” (priority 1989, dated 1992)

Key:
[1] = system: Infiltration of Polymorphonuclear Leukocytes into Sites of Carrageenan-Induced Inflammation; assay: Mouse carrageenan peritonitis (PMN infiltration); type: in vivo, mouse (male Balb/c)
From the text: (§1) In the following Examples where mice were used, they were male Balb/c mice (20-28 g), and where rats were used, they were male Lewis rats (180-210 g). All mice and rats were obtained from Charles River Breeding Laboratories, Kingston, N.Y. Within a single experiment, mice and rats were sex and age matched.
(§2) The compounds of Formula (I) were used either as the free base or in the appropriate salt form. Levamisole was used as the hydrochloride salt. The compounds were homogenized in 0.5% tragacanth. Compounds were administered by gavage at the indicated dose in a final volume of 10 ml/kg. Nordihydroguaiaretic acid (NDGA) was solubilized in dimethylacetamide and diluted with olive oil for subcutaneous administration.
Mice were pretreated with either the test compound or vehicle one hour before the intraperitoneal injection of a 1.0% carrageenan suspension in saline (0.2 ml/mouse). Mice were sacrificed by cervical dislocation two hours after injection, and 3.0 ml of phosphate buffered saline, without Ca^++ or Mg^++, was injected into the peritoneum. Following massage, a 2.0 ml aliquot of the lavage fluid was removed, and the total cell count determined on a Coulter counter and differential cell count determined by microscopic examination of Giesma-stained slides.

[2] = system: Arachidonic Acid-Induced Inflammation of the Mouse Ear; assay: Arachidonic acid-induced mouse ear inflammation; type: in vivo, mouse (male Balb/c)
From the text: as §1, §2
Arachidonic acid in acetone ([…]) was applied to the inner surface of the left ear. The thickness of both ears was then measured with a dial micrometer one hour after treatment, and the data were expressed as the change in thickness (10^-3 cm) between treated and untreated ears.
Test compounds were given orally in 0.5% tragacanth at the times indicated in the text prior to the topical application of arachidonic acid.
Parenteral administration of compound was accomplished by subcutaneous injection of solution as indicated.

Compound: COc1ccc2cc([C@H](C)C(=O)O)ccc2c1 [Naproxen]
- % Change (PMN) ([1]; 100 mg/kg, p.o., Table 3): -11%
- PMN (Mean ± S.D.) ([1]; 100 mg/kg, p.o., Table 3): 10.28 ± 2.49 × 10^-5 /ml
- PMN infiltration, result in words ([1]; carrageenan peritonitis, mice): did not impair inflammatory cell infiltration
- % Change (ear thickness) ([2]; 100 mg/kg, p.o.): +3%
- Increase in Ear Thickness at 1 Hour ([2]; 100 mg/kg, p.o.): 26.4 ± 2.6 × 10-3 cm
- Mouse ear edema, result in words ([2]; mouse, in vivo): did not exhibit detectable anti-inflammatory activity
